Results are given in words; binding and its absence hold for the method and conditions named. Some results given as binding are weak or reduced against the parent protein; the word gives no strength.
Biological target: human transferrin receptor-Fc tag standard (human) (UniProt P02786)
Test: ELISA, human transferrin receptor-Fc coated on the plate

B1: huHF_Mutant2-dual (designed binder)
chain: MTTASTSQVRQNYHAASEAAINAQINLELYASYVYLSMSYYFDRDDVALKNFAKYFLHQSHEEREHAEKLMKLQNQRGGRIALADIQKPDCDGGSYGSLYAFDIDWESGLNAMECALHLEKNVNQSLLALHALATAKNDPHLCDFIETHYLNEQVKAIKELGDHVTNLRKMGAPESGLAEYLFDKHTLGDSDNESMPSFITLASLSTWEGYFDF
- binding: binds
